Data published in article PMC6918085.

Protein sequences, listed by entry. Tags and fused reporters are not part of them. Residues count along the entry.
UniProt P71451, residues 35-297: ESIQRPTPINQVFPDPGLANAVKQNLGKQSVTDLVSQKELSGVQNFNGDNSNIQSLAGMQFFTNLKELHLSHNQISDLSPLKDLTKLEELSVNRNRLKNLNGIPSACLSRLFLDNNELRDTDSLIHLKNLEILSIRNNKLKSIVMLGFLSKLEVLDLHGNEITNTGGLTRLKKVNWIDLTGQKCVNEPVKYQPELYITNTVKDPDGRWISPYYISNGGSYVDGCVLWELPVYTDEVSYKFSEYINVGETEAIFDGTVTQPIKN

Target: InlC secreted by L. monocytogenes EGD in infected HeLa cells (Listeria monocytogenes EGD) (UniProt P71451)
Test: affinity purification with mass spectrometry; anti-InlC antibodies and protein A-Sepharose on extracts (modified RIPA buffer) of HeLa cells infected for 24 h with Listeria expressing native InlC, InlC-K^all or InlC-K^224; immunoprecipitates analysed by LC-MS/MS

B1: S100A9 in HeLa cell extracts (protein, UniProt P06702 1-114)
chain: MTCKMSQLERNIETIINTFHQYSVKLGHPDTLNQGEFKELVRKDLQNFLKKENKNEKVIEHIMEDLDTNADKQLSFEEFIMLMARLTWASHEKMHEGDEGPGHHHKPGLGEGTP
With B1 the binding was “binds”.

No constants are given. Whether binding was seen depends on the method and setting. Binding seen in cells or lysates may run through a third protein. These calls come from enrichment with a bait or labelling near it, and not all partners need be listed.
